According to the supplement of paper PMC10849652:
The list shows a part of the results.

Amino acid sequences for entries named in this document (tags omitted). A change or cut given only in a name is not applied to a line headed by its entry.
UniProt Q96S99: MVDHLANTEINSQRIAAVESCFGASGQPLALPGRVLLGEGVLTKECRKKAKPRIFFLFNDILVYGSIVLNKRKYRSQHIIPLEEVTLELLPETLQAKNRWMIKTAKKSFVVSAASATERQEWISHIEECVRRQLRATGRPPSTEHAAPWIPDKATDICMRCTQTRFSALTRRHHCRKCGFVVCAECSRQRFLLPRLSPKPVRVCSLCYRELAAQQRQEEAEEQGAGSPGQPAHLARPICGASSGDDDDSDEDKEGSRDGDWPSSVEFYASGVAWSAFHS
UniProt Q8N4L2: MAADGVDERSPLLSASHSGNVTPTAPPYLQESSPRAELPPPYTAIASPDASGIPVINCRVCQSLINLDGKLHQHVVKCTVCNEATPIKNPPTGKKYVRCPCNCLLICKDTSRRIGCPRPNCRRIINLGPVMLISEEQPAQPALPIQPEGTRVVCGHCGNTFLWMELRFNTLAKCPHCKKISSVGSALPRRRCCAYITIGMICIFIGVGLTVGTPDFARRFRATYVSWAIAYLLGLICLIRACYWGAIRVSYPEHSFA
UniProt Q13492: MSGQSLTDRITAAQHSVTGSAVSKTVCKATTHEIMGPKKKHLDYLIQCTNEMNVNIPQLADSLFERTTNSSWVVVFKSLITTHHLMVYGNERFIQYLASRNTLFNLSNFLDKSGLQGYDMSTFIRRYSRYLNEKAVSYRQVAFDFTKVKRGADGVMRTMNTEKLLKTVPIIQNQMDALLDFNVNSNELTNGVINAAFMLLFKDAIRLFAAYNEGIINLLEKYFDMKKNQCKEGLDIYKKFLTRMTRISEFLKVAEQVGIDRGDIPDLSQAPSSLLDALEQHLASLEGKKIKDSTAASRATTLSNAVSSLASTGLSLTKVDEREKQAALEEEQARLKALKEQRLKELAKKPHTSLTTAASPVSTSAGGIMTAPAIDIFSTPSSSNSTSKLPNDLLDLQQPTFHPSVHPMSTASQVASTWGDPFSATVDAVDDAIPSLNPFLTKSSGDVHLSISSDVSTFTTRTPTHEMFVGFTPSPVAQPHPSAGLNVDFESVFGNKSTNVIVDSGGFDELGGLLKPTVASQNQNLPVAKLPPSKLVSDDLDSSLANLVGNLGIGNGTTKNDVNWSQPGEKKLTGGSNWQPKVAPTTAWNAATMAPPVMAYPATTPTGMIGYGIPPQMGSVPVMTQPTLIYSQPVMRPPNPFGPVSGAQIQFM
UniProt P30613: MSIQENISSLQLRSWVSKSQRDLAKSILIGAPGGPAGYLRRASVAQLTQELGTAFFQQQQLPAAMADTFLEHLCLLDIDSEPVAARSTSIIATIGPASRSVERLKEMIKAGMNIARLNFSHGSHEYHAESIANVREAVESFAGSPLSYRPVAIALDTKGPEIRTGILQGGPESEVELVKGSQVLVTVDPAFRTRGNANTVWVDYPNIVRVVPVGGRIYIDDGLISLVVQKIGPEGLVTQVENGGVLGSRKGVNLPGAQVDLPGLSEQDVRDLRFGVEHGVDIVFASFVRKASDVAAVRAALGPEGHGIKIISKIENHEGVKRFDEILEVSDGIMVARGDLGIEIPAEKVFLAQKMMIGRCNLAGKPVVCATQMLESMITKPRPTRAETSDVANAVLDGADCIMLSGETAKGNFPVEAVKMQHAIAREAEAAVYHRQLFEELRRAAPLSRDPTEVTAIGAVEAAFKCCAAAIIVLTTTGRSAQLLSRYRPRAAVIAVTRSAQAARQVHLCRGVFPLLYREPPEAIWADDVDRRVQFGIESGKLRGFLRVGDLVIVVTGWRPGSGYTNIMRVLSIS
UniProt Q92576, whole entry, looked up: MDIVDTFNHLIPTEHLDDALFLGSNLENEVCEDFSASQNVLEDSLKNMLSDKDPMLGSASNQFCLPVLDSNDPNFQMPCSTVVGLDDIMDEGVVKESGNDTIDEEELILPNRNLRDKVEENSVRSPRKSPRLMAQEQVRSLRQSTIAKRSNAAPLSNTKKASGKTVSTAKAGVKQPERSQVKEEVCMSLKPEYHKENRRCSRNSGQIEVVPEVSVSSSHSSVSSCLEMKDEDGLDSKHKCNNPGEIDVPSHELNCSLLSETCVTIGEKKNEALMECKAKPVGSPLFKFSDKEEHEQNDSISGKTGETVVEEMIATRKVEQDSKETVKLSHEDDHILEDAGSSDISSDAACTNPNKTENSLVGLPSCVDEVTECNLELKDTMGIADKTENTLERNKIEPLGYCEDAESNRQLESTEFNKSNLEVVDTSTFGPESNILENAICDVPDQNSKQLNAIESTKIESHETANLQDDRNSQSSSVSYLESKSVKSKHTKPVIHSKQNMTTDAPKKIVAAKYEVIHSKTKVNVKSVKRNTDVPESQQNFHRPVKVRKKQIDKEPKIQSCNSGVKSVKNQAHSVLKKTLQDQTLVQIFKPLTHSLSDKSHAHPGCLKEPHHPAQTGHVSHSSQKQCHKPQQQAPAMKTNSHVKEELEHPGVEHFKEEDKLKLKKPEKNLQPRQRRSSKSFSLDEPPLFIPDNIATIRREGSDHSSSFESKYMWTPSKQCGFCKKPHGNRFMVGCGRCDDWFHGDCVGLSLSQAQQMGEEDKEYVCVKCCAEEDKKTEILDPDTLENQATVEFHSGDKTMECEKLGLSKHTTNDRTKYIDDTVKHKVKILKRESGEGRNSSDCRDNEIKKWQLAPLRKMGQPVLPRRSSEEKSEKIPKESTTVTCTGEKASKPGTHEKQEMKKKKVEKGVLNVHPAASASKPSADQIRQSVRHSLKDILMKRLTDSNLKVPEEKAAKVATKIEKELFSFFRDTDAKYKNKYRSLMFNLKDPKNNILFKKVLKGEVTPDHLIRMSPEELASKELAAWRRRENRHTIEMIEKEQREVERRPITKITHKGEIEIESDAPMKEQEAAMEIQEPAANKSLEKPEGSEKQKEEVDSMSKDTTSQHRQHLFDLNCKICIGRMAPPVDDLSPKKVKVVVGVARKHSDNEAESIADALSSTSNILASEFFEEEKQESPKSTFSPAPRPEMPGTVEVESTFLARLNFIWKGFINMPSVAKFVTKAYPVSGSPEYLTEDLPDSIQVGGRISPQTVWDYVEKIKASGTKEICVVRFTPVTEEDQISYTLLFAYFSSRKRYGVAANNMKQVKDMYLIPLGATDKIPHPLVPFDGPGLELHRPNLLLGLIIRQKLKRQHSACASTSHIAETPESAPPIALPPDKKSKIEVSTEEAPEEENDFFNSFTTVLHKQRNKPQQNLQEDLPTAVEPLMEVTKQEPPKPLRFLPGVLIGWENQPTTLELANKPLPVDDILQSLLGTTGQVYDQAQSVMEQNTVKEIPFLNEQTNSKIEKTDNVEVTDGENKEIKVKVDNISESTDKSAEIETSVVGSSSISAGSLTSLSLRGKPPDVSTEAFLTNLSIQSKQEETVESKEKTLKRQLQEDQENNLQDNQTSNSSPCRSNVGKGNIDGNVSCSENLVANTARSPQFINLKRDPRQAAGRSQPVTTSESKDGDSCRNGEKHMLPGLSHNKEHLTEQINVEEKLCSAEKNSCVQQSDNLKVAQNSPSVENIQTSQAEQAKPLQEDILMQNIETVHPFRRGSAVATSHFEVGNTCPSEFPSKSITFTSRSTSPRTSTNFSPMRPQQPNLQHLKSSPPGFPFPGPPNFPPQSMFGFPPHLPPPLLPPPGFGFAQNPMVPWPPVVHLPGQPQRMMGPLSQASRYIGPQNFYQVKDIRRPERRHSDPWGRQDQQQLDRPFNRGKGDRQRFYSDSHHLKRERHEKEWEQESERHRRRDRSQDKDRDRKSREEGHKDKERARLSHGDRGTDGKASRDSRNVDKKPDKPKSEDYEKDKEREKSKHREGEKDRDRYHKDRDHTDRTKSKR
UniProt Q96S52: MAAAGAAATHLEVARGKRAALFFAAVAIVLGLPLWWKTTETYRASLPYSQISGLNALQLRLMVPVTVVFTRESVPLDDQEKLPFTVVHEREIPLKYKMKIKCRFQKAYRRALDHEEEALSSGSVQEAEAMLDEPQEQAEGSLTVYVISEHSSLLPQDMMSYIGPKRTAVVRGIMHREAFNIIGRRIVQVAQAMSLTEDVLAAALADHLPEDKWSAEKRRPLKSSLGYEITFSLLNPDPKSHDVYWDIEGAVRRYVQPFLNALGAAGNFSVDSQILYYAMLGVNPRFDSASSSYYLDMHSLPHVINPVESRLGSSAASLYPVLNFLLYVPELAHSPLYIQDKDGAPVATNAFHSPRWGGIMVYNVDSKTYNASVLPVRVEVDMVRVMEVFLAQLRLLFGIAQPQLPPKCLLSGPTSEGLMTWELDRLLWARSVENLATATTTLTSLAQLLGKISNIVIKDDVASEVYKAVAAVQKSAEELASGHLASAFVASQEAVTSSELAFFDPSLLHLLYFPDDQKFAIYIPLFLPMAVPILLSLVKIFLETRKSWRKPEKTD
UniProt Q7RTV0, whole entry, looked up: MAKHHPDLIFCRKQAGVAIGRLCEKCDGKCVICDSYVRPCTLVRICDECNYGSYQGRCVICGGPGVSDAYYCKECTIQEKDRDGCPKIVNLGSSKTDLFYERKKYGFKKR
UniProt P0C869: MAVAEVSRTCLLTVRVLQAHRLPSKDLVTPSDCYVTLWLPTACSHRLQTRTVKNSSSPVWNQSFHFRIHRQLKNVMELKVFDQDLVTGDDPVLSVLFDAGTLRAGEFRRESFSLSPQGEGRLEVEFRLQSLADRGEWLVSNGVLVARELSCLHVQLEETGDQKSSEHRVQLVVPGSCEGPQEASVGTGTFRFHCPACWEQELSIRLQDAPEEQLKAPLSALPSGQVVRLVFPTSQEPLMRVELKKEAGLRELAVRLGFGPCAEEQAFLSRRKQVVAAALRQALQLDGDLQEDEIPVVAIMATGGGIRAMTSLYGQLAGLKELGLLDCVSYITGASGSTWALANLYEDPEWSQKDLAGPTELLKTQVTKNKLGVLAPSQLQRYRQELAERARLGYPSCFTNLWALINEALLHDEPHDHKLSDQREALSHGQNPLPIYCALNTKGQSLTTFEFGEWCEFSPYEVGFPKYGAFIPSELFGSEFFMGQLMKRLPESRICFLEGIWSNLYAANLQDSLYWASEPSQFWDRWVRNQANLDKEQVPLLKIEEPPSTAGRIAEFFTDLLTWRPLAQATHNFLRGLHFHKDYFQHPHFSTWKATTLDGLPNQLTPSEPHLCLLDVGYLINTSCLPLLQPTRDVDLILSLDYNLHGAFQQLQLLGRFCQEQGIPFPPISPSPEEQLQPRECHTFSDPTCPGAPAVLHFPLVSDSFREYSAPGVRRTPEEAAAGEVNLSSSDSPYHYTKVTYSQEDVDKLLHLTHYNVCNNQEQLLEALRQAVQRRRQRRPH
UniProt O94880: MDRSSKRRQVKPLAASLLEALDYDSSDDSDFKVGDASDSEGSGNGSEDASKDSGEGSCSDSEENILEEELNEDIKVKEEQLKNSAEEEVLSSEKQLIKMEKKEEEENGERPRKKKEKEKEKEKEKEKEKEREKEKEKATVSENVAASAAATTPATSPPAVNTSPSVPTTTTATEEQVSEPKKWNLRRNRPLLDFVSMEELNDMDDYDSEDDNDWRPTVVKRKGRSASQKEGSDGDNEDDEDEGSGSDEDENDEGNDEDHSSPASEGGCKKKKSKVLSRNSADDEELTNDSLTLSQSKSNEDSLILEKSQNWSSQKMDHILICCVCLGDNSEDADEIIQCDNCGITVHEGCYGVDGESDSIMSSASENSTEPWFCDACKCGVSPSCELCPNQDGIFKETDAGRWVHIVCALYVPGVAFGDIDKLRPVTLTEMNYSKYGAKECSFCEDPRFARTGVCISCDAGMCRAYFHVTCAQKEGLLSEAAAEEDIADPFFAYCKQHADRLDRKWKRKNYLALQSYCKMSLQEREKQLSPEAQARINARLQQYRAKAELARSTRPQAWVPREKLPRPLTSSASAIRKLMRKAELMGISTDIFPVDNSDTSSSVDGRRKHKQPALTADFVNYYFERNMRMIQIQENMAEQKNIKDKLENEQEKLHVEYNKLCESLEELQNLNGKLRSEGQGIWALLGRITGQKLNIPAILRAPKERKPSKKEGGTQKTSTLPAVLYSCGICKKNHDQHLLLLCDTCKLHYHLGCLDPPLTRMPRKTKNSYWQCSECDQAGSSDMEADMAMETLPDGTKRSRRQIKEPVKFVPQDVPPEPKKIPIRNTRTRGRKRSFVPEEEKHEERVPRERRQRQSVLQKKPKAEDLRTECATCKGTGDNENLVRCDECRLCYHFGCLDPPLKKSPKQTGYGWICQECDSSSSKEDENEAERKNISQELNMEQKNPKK
UniProt Q9NWS0, whole entry, looked up: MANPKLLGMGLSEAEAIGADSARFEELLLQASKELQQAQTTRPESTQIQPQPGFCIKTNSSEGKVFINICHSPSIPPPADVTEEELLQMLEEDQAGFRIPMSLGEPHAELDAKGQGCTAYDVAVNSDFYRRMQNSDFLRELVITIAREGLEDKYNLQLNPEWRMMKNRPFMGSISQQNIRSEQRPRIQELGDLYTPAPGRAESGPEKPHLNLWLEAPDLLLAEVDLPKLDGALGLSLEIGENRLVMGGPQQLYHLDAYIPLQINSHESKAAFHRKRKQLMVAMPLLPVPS

Experiments:
Experiment in all cases: log2 fold change, soluble protein after heating vs DMSO (PISA); higher = thermal stabilisation; K562 lysate, 10 uM; active = over 0.2 and 3.5 SD of the protein, either way, in both replicates (recomputed)
vemurafenib = compound: CCCS(=O)(=O)Nc1ccc(F)c(C(=O)c2c[nH]c3ncc(-c4ccc(Cl)cc4)cc23)c1F [vemurafenib]
In short: (§1)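 Soluble protein was defined as the supernatant remaining after 21,000xg for 90 min, following pooling of heated aliquots and adjustment to 0.5% NP-40 at 4°C. Before that, crude K562 extract at 1 mg/mL protein in PBS pH 7.4 with 1 mM MgCl2 was treated with 10 μM compound for 30 min and heated for 3 min across 48°C-58°C. Quantification used TMTpro 16plex LC-MS/MS with channel sums equalised, and values are log-two fold changes in thermal stability relative to solvent controls from duplicates.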

[1] = compound: CCCS(=O)(=O)Nc1ccc(F)c(C(=O)c2c[nH]c3ncc(Cl)cc23)c1F
In short: as §1

barasertib = compound: CCN(CCCOc1ccc2c(Nc3cc(CC(=O)Nc4cccc(F)c4)[nH]n3)ncnc2c1)CCOP(=O)(O)O [barasertib]
In short: as §1

[2] = compound: CC[C@@H]1C(=O)N(C)c2cnc(Nc3ccc(C(=O)NC4CCN(C)CC4)cc3OC)nc2N1C1CCCC1
In short: as §1

volasertib = compound: CC[C@@H]1C(=O)N(C)c2cnc(Nc3ccc(C(=O)N[C@H]4CC[C@H](N5CCN(CC6CC6)CC5)CC4)cc3OC)nc2N1C(C)C [volasertib]
In short: as §1

[3] = compound: CCn1c(C(=O)N(C2CC2)C2CC2)cc2c3c(ncn3C)c(Nc3cc(C)n(C)n3)nc21
In short: as §1

[4] = compound: CCn1cc(-c2ccnc3[nH]c(-c4cccc(CN(C)C)c4)cc23)c(-c2ccc(NC(=O)N(C)C)cc2)n1
In short: as §1

[5] = compound: CN1CCC(CNc2ccc3ncc(-c4cccc(OC(F)(F)F)c4)n3n2)CC1
In short: as §1

saracatinib = compound: CN1CCN(CCOc2cc(OC3CCOCC3)c3c(Nc4c(Cl)ccc5c4OCO5)ncnc3c2)CC1 [saracatinib]
In short: as §1

sotrastaurin = compound: CN1CCN(c2nc(C3=C(c4c[nH]c5ccccc45)C(=O)NC3=O)c3ccccc3n2)CC1 [sotrastaurin]
In short: as §1

Row | Target | log2 fold change (vemurafenib) | log2 fold change [1] | log2 fold change (barasertib) | log2 fold change [2] | log2 fold change (volasertib) | log2 fold change [3] | log2 fold change [4] | log2 fold change [5] | log2 fold change (saracatinib) | log2 fold change (sotrastaurin)
1 | PLEKHF1 (UniProt Q96S99) | inactive: 0.019 | inactive: -0.008 | inactive: 0.004 | inactive: -0.004 | inactive: 0.002 | inactive: 0.059 | inactive: -0.062 | inactive: 0.018 | inactive: 0.007 | inactive: -0.028
2 | PIP4P2 (UniProt Q8N4L2) | inactive: 0.038 | inactive: 0.031 | inactive: 0.311 | inactive: 0.039 | inactive: 0.01 | inactive: -0.016 | inactive: 0.022 | inactive: 0.03 | inactive: 0.038 | inactive: -0.16
3 | PLAA (UniProt Q9Y263) | inactive: -0.036 | inactive: 0.01 | inactive: 0.03 | inactive: -0.027 | inactive: -0.041 | inactive: 0.018 | inactive: -0.082 | inactive: 0.069 | inactive: 0.002 | inactive: 0.035
4 | PICALM (UniProt H0YEH1) | inactive: 0.05 | inactive: -0.094 | inactive: -0.018 | inactive: -0.008 | inactive: -0.011 | inactive: -0.014 | active: -0.54 | inactive: 0.248 | inactive: 0.056 | inactive: 0.126
5 | PI4K2B (UniProt Q8TCG2) | inactive: -0.003 | inactive: -0.006 | inactive: 0.023 | inactive: 0.07 | inactive: -0.032 | inactive: -0.062 | inactive: 0.081 | inactive: 0.121 | inactive: -0.009 | inactive: 0.132
6 | PIP4K2A (UniProt P48426) | inactive: 0 | inactive: -0.009 | inactive: -0.051 | active: 0.31 | inactive: 0.087 | inactive: 0.073 | inactive: -0.035 | inactive: 0.155 | inactive: 0.036 | inactive: 0.02
7 | PKN1 isoform 2 (UniProt Q16512) | inactive: 0.013 | inactive: 0.049 | inactive: -0.006 | inactive: 0.013 | inactive: -0.009 | inactive: 0.024 | inactive: -0.055 | active: -0.483 | inactive: 0.002 | inactive: -0.143
8 | PHF23 (UniProt Q9BUL5) | inactive: -0.03 | inactive: -0.008 | inactive: -0.009 | inactive: 0.025 | inactive: 0.022 | inactive: -0.037 | inactive: 0.073 | inactive: -0.028 | inactive: -0.009 | inactive: -0.034
9 | PLCB3 (UniProt Q01970) | inactive: -0.006 | inactive: -0.006 | inactive: -0.006 | inactive: 0.013 | inactive: -0.006 | inactive: 0.011 | inactive: 0.027 | inactive: -0.013 | inactive: 0.014 | inactive: 0.004
10 | PICALM (UniProt Q13492) | inactive: -0.004 | inactive: -0.004 | inactive: 0.037 | inactive: 0.04 | inactive: 0.014 | inactive: 0.004 | inactive: 0.098 | inactive: -0.021 | inactive: 0.009 | inactive: -0.061
11 | PKLR (UniProt P30613) | inactive: 0.016 | inactive: 0.013 | inactive: -0.024 | inactive: 0.045 | inactive: 0.007 | inactive: -0.027 | inactive: -0.018 | inactive: 0.027 | inactive: -0.012 | inactive: -0.015
12 | PIGQ (UniProt Q9BRB3) | inactive: 0.086 | inactive: 0.147 | inactive: -0.22 | inactive: 0.022 | inactive: 0.098 | – | inactive: -0.142 | inactive: 0 | – | inactive: 0.188
13 | PLCG2 (UniProt P16885) | inactive: -0.017 | inactive: 0.029 | inactive: 0.018 | inactive: 0.091 | inactive: -0.016 | inactive: -0.158 | inactive: -0.039 | inactive: -0.385 | – | inactive: -0.042
14 | PHF3 (UniProt Q92576) | inactive: -0.019 | inactive: 0.024 | inactive: 0.027 | inactive: 0.136 | inactive: -0.008 | inactive: 0.008 | inactive: 0.032 | inactive: 0.003 | inactive: 0.03 | inactive: -0.015
15 | PITPNB isoform 3 (UniProt P48739) | inactive: -0.036 | inactive: 0.03 | inactive: -0.017 | inactive: -0.009 | inactive: 0.006 | inactive: 0.016 | inactive: -0.022 | inactive: -0.075 | inactive: -0.019 | inactive: -0.003
16 | PIGS (UniProt Q96S52) | inactive: 0.008 | inactive: 0.015 | inactive: 0.05 | inactive: 0.109 | inactive: -0.039 | inactive: 0.023 | inactive: -0.027 | inactive: -0.006 | inactive: -0.001 | inactive: -0.04
17 | PHF5A (UniProt Q7RTV0) | inactive: 0.003 | inactive: 0.007 | inactive: -0.04 | inactive: 0 | inactive: 0.035 | inactive: 0.013 | inactive: 0.022 | inactive: 0.078 | inactive: 0.021 | inactive: -0.055
18 | PIGO (UniProt Q8TEQ8) | inactive: -0.112 | inactive: 0.109 | inactive: 0.064 | inactive: 0.013 | inactive: -0.069 | inactive: -0.081 | inactive: -0.029 | inactive: -0.043 | inactive: -0.013 | active: -0.499
19 | PHF21A isoform 3 (UniProt Q96BD5) | inactive: 0.07 | inactive: -0.113 | inactive: 0.042 | inactive: -0.02 | inactive: -0.099 | inactive: 0.034 | inactive: -0.18 | inactive: 0.115 | inactive: -0.02 | inactive: -0.005
20 | PHOSPHO2 (UniProt Q8TCD6) | inactive: -0.023 | inactive: -0.026 | inactive: 0.047 | inactive: 0.232 | inactive: 0.019 | inactive: 0.003 | inactive: -0.084 | inactive: 0.001 | inactive: -0.023 | inactive: 0.039
21 | PLA2G4B isoform 6 (UniProt P0C869) | inactive: 0.05 | inactive: 0.069 | inactive: 0.002 | inactive: 0.144 | inactive: 0.018 | inactive: -0.191 | inactive: 0.034 | inactive: -0.014 | inactive: 0.101 | inactive: -0.168
22 | PLBD1 (UniProt Q6P4A8) | inactive: -0.006 | inactive: 0.034 | inactive: 0.057 | inactive: 0.038 | inactive: 0.056 | inactive: 0.009 | inactive: -0.032 | inactive: 0.038 | inactive: 0.061 | inactive: 0.043
23 | PHB (UniProt P35232) | inactive: -0.047 | inactive: 0.021 | inactive: 0.129 | inactive: -0.025 | inactive: 0.036 | inactive: 0.014 | inactive: -0.037 | inactive: -0.083 | inactive: -0.038 | inactive: -0.015
24 | PHF14 (UniProt O94880) | inactive: 0.079 | inactive: -0.127 | inactive: -0.046 | inactive: 0.341 | inactive: 0.004 | inactive: -0.02 | – | – | inactive: -0.047 | –
25 | PIH1D1 (UniProt Q9NWS0) | inactive: -0.008 | inactive: 0.014 | inactive: 0.067 | inactive: -0.01 | inactive: -0.004 | inactive: 0.006 | inactive: 0.022 | inactive: -0.021 | inactive: -0.032 | inactive: -0.009
26 | PLEC (UniProt Q15149) | inactive: 0.013 | inactive: 0.002 | inactive: 0.021 | inactive: -0.022 | inactive: -0.024 | inactive: 0.011 | inactive: -0.042 | inactive: -0.008 | inactive: 0.15 | inactive: 0

2 records drawn at random from the list so far, as already listed:
Row | Target | log2 fold change (vemurafenib) | log2 fold change [1] | log2 fold change (barasertib) | log2 fold change [2] | log2 fold change (volasertib) | log2 fold change [3] | log2 fold change [4] | log2 fold change [5] | log2 fold change (saracatinib) | log2 fold change (sotrastaurin)
3 | PLAA (UniProt Q9Y263) | inactive: -0.036 | inactive: 0.01 | inactive: 0.03 | inactive: -0.027 | inactive: -0.041 | inactive: 0.018 | inactive: -0.082 | inactive: 0.069 | inactive: 0.002 | inactive: 0.035
8 | PHF23 (UniProt Q9BUL5) | inactive: -0.03 | inactive: -0.008 | inactive: -0.009 | inactive: 0.025 | inactive: 0.022 | inactive: -0.037 | inactive: 0.073 | inactive: -0.028 | inactive: -0.009 | inactive: -0.034
